Data on one substance can be found in publication PMC11713712, “PFTAIRE peptide degrading cyclin Y and ameliorating cognitive deficits in mouse models of Alzheimer’s Disease” (Alzheimer's & Dementia, 2025).

This data set relates to cortical brain section of mouse models. The data set is described as follows: Proteomic analysis of the cortical brain section of mouse models. The class given is in vivo.

Turning to “PFTAIRE peptide: Peptide derived from the domain of cyclin‐dependent kinase 14 essential for binding to CCNY; produced by solid‐phase peptide synthesis”, the “gene ontology of down-regulated proteins” value was “down‐regulated proteins related to oxidative stress” and the “gene ontology of up-regulated proteins” value is listed as “up‐regulated proteins related to release/transport neurotransmitter in brain synapse”.
